Measured values reported in the supplement of paper PMC10849652.
The other results are listed elsewhere or left out.

Sequences of proteins named here, by UniProt entry; tags and fusion partners are left off. A change or cut given only in a name is not applied to a line headed by its entry.
UniProt P46108: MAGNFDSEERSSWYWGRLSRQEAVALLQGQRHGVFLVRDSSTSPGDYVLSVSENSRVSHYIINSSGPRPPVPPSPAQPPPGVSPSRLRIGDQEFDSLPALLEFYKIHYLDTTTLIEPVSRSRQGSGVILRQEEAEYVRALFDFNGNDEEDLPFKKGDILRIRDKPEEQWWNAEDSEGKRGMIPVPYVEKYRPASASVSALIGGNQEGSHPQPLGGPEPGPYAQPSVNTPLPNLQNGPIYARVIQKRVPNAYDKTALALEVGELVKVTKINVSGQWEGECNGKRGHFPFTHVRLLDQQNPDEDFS
UniProt O75575: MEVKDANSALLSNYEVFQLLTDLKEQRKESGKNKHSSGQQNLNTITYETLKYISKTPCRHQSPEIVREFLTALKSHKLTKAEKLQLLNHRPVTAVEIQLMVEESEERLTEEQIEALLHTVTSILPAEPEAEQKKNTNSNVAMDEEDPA
UniProt Q7Z7A3: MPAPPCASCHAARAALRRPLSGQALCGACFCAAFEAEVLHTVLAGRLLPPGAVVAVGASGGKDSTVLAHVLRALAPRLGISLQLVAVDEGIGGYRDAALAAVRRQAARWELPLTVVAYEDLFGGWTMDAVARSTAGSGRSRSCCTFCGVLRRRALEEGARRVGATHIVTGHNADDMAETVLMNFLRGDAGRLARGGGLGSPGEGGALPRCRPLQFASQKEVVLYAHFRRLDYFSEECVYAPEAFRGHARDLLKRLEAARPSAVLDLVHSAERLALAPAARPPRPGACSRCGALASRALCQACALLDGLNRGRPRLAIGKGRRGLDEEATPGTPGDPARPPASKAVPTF
UniProt P52943: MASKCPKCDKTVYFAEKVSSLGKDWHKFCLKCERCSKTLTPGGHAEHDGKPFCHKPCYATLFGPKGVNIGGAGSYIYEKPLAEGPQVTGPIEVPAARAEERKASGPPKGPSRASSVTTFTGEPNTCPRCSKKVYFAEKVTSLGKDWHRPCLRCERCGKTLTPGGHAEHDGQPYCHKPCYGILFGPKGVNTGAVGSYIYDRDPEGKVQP
UniProt P08311: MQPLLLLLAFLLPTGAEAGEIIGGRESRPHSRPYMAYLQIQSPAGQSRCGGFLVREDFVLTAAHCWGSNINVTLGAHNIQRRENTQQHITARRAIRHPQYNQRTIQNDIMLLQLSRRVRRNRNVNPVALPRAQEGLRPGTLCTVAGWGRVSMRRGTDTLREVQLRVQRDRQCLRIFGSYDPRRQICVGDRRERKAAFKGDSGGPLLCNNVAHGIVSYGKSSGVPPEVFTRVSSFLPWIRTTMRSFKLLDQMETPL
UniProt Q03060: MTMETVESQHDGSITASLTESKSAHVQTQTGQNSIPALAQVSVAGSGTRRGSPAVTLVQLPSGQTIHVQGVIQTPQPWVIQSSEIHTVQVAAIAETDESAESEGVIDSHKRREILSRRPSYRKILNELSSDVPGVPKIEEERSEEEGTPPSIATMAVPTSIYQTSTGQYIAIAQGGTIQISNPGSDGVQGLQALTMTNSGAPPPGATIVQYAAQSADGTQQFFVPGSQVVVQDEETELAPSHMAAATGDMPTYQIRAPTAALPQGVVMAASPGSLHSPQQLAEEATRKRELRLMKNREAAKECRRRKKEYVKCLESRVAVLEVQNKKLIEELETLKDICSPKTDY

Tests used:
Assay in all cases: log2 fold change, soluble protein after heating vs DMSO (PISA); higher = thermal stabilisation; K562 lysate, 10 uM; active = over 0.2 and 3.5 SD of the protein, either way, in both replicates (recomputed)
[1] = compound: C1=CC=C(C=C1)[C@H](COC2=CC3=C(C=C2)NC(=O)N3)NC(=O)C4=CC=CN(C4=O)CC5=CC(=C(C=C5)F)F
Procedure, shortened: (§1)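 The values are log-two fold changes in thermal stability compared with solvent controls and come from duplicates. They were obtained by TMTpro 16plex LC-MS/MS, with channel sums equalised, on the supernatant after 21,000xg for 90 min. That supernatant came from crude K562 extract at 1 mg/mL protein treated with 10 μM compound for 30 min, heated for 3 min across 48°C-58°C, pooled and brought to 0.5% NP-40 at 4°C.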

[2] = compound: CC1=C(SC2=C1C(=N[C@H](C3=NN=C(N32)C)CC(=O)N)C4=CC=C(C=C4)Cl)C
Procedure, shortened: as §1

[3] = compound: CC1=C2C(=CC=C1)N=C(N(C2=O)C3=CC=CC=C3C)CN4C=NC5=C(N=CN=C54)N
Procedure, shortened: as §1

[4] = compound: Cc1sc2c(c1C)C(c1ccc(Cl)cc1)=N[C@@H](CC(=O)OC(C)(C)C)c1nnc(C)n1-2
Procedure, shortened: as §1

[5] = compound: c1ccc([C@@H]2C[C@H]2NC2CCNCC2)cc1
Procedure, shortened: as §1

Measured: log2 fold change

CRK (UniProt P46108)
inactive: [1] 0.039 | [2] 0.009 | [3] 0.018 | [4] -0.028 | [5] -0.011

CRCP (UniProt O75575)
inactive: [1] 0.052 | [2] 0.006 | [3] 0.052 | [5] -0.037

CRYM-AS1 (UniProt A6NIL9)
inactive: [1] -0.061 | [2] 0.002 | [3] 0.08 | [5] -0.092

CTU1 (UniProt Q7Z7A3)
inactive: [1] 0.053 | [2] 0.004 | [3] 0.024 | [4] 0.016 | [5] 0.007

CRIP2 isoform 2 (UniProt P52943)
inactive: [1] 0 | [2] 0.052 | [4] -0.177 | [5] -0.084

CTSG (UniProt P08311)
inactive: [4] -0.277 | [5] -0.161

CREM isoform 1 (UniProt Q03060)
inactive: [1] -0.024 | [2] -0.026 | [4] -0.068 | [5] 0.044
